{"sequences": {"note": "By UniProt entry, the sequences of proteins in these tests, tags left out.", "UniProt P04637, whole entry, looked up": "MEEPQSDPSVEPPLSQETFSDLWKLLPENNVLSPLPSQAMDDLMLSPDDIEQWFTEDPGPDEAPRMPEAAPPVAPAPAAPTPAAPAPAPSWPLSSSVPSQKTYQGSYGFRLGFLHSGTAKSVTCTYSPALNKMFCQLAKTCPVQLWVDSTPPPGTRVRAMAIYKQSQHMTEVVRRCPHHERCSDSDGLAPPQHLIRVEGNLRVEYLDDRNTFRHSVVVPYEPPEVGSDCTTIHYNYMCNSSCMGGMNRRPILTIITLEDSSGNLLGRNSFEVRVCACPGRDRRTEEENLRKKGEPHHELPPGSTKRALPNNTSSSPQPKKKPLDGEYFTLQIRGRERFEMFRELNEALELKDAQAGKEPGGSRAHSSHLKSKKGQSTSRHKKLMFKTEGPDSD"}, "source": "PubChem BioAssay (EPA / NIEHS)", "note": "Values joined by “and” are separate entries in the source; they are usually repeats but may differ in a detail not shown here. Equal entries are not always repeated. The inconclusive results got no clear call from the source; some entries with a clear call stand among them for comparison. Potencies beside an inconclusive call are fits to weak or partial responses and may not hold up. Active and inactive are the calls of the source. The calls were made as follows: active = hit-call score of the fitted dose curve at least 0.9, where 1 is the maximum; inconclusive = response in the unintended direction; inactive = score below 0.9.", "data": [{"tested_on": "not listed separately", "experiment": "TOX21_p53_BLA_p5_viability: Viability Assessment in the Tox21 HCT-116 p53 Agonism Beta-lactamase Assay, Phase 5 (AID 2283600)", "in_short": "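Cells were plated at 4000/well, rested 5 h at 37C, then given compounds in DMSO (217-fold dilution) for 16 h at 37C, 5% CO2. Following the CCF4-AM beta-lactamase read, CellTiter-Glo was added and luminescence was read after 30 min at room temperature.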", "values": [{"compound": "CNCCCN1c2ccccc2CCc2ccccc21", "outcome": "inactive"}, {"compound": "NC(=O)Oc1ccc(Cc2ccccc2)cc1", "AC50": "inconclusive: 43.4 µM"}, {"compound": "CO[C@@]1(NC(=O)CSC[C@@H](N)C(=O)O)C(=O)N2C(C(=O)O)=C(CSc3nnnn3C)CS[C@@H]21", "outcome": "inactive"}, {"compound": "Cc1cnc(C(=O)O)c[n+]1[O-]", "AC50": "inconclusive: 23 µM"}, {"compound": "O=C1NC2CCCCN2C12CCN(CCCN1c3ccccc3CCc3ccc(Cl)cc31)CC2", "note": "(stereo not given)", "AC50": "inconclusive: 5.87 µM"}, {"compound": "ClC/C=C\\CCl", "AC50": "inconclusive: 12.3 µM"}, {"compound": "CC[C@]12CCCN3CCc4c(n(c5ccccc45)C(=O)C1)[C@@H]32", "AC50": "inconclusive: 0.259 µM"}, {"compound": "CN1[C@@H]2CC[C@H]1CC(OC(=O)c1c[nH]c3ccccc13)C2", "note": "(stereo not given in full)", "AC50": "inconclusive: 0.502 µM"}, {"compound": "CC1(C)[C@@H](O[C@H]2O[C@H](C(=O)O)[C@@H](O)[C@H](O)[C@H]2O[C@@H]2O[C@H](C(=O)O)[C@@H](O)[C@H](O)[C@H]2O)CC[C@]2(C)[C@H]3C(=O)C=C4[C@@H]5C[C@@](C)(C(=O)O)CC[C@]5(C)CC[C@@]4(C)[C@]3(C)CC[C@@H]12", "AC50": "inconclusive: 23 µM and inconclusive: 36.1 µM"}, {"compound": "CC(C)=CCC/C(C)=C/CC/C(C)=C/CC/C=C(\\C)CC/C=C(\\C)CCC=C(C)C", "AC50": "inconclusive: 0.000521 µM"}, {"compound": "OC(CCCN1CCCCC1)(c1ccccc1)c1ccccc1", "outcome": "inactive"}, {"compound": "CN[C@H]1CCc2cc(OC)c(OC)c(OC)c2-c2ccc(OC)c(=O)cc21", "AC50": "inconclusive: 0.134 µM"}, {"compound": "OC1CCCc2ccccc21", "note": "(stereo not given)", "outcome": "inactive"}, {"compound": "COc1ccc(-c2nc3ccc(C4=NNC(=O)CC4C)cc3[nH]2)cc1", "note": "(stereo not given)", "outcome": "inactive"}, {"compound": "Clc1cc(Cl)nc(Cl)n1", "AC50": "inconclusive: 46.6 µM"}, {"compound": "O=C1O[C@H](CO)[C@@H](O)[C@H](O)[C@H]1O", "AC50": "inconclusive: 23 µM"}, {"compound": "Cc1cccc(O)c1N", "AC50": "inconclusive: 46.5 µM"}, {"compound": "CCOc1nc2cccc(C(=O)O)c2n1Cc1ccc(-c2ccccc2-c2nn[nH]n2)cc1", "AC50": "active: 38.2 µM"}, {"compound": "O=Cc1c2ccccc2c(Cl)c2ccccc12", "AC50": "inconclusive: 3.01 µM"}, {"compound": "CCNC(=O)NCCCOc1cccc(CN2CCCCC2)c1", "AC50": "inconclusive: 23 µM"}, {"compound": "O=C1OC(O)C(C(Cl)Cl)=C1Cl", "note": "(stereo not given)", "outcome": "inactive"}, {"compound": "OC(CN1CCCCC1)c1cc(-c2ccccc2)on1", "note": "(stereo not given)", "AC50": "inconclusive: 4.98 µM"}, {"compound": "COc1ccc(CCNCC(O)COc2cccc(C)c2)cc1OC", "note": "(stereo not given)", "AC50": "inconclusive: 23 µM"}, {"compound": "C=C1CC[C@H](O)C/C1=C/C=C1\\CCC[C@]2(C)[C@@H]([C@H](C)CC[C@@H](O)C(C)(C)O)CC[C@@H]12", "AC50": "active: 17.2 µM"}, {"compound": "O=C(c1ccc(O)cc1)c1ccc(Cl)cc1", "outcome": "inactive"}, {"compound": "CC1=C(C/C=C(\\C)CCC[C@H](C)CCC[C@H](C)CCCC(C)C)C(=O)c2ccccc2C1=O", "AC50": "inconclusive: 8.74 µM"}, {"compound": "COc1cnc(NS(=O)(=O)c2ccc(N)cc2)nc1", "AC50": "inconclusive: 10.3 µM"}, {"compound": "CC(C)(C)NCC(O)COc1cccc2c1CCC(=O)N2", "note": "(stereo not given)", "AC50": "inconclusive: 10.3 µM"}, {"compound": "CNC(=O)N(c1ccccc1)c1ccccc1", "AC50": "inconclusive: 46.2 µM"}, {"compound": "CC(=O)OCC(=O)[C@@]1(O)CC[C@H]2[C@@H]3C[C@H](C)C4=CC(=O)C=C[C@]4(C)[C@H]3[C@@H](O)C[C@@]21C", "AC50": "inconclusive: 23 µM"}, {"compound": "Cc1ccc(O)c([C@H](CCN(C(C)C)C(C)C)c2ccccc2)c1", "AC50": "inconclusive: 0.59 µM"}, {"compound": "O=C(O)/C=C/c1cnc[nH]1", "AC50": "inconclusive: 46.1 µM"}, {"compound": "Cc1ccnc2c1NC(=O)c1cccnc1N2C1CC1", "AC50": "inconclusive: 4.88 µM"}, {"compound": "CCc1ccc(Br)cc1", "AC50": "inconclusive: 47.1 µM"}, {"compound": "O=C(O)CCc1nc(-c2ccccc2)c(-c2ccccc2)o1", "AC50": "inconclusive: 7.72 µM"}, {"compound": "Cc1cccc2c1cc1ccc3cccc4ccc2c1c34", "AC50": "inconclusive: 47 µM"}, {"compound": "Cc1nccn1CC1CCc2c(c3ccccc3n2C)C1=O", "note": "(stereo not given)", "AC50": "inconclusive: 23 µM", "outcome": "inactive"}, {"compound": "O=C(O)c1cc(O)c2c(c1)[O][Bi][O]2", "AC50": "inconclusive: 23 µM"}, {"compound": "Cc1cccc(C)c1NC(=O)c1cc(S(N)(=O)=O)c(Cl)cc1O", "AC50": "inconclusive: 23 µM"}]}, {"target": "Cellular tumor antigen p53 (Homo sapiens) (UniProt P04637)", "experiment": "TOX21_p53_BLA_p4_ratio: Tox21 HCT-116 p53 Agonism Beta-lactamase Assay, Ratio, Phase 4 (AID 2283601)", "in_short": "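HCT116 cells carrying an inducible beta-lactamase reporter were plated at 4000 cells/well, rested 5 h, then exposed to compounds in DMSO (217-fold dilution) for 16 h at 37C. CCF4-AM substrate was loaded 2 h at room temperature; 460/530 nm emission ratio scored gain-of-signal versus DMSO.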", "values": [{"compound": "CO[C@@]1(NC(=O)CSC[C@@H](N)C(=O)O)C(=O)N2C(C(=O)O)=C(CSc3nnnn3C)CS[C@@H]21", "AC50": "inconclusive: 23 µM"}, {"compound": "O=C1NC2CCCCN2C12CCN(CCCN1c3ccccc3CCc3ccc(Cl)cc31)CC2", "note": "(stereo not given)", "outcome": "inactive"}, {"compound": "CC[C@]12CCCN3CCc4c(n(c5ccccc45)C(=O)C1)[C@@H]32", "AC50": "active: 3.51 µM"}, {"compound": "CN1[C@@H]2CC[C@H]1CC(OC(=O)c1c[nH]c3ccccc13)C2", "note": "(stereo not given in full)", "outcome": "inactive"}, {"compound": "OC(CCCN1CCCCC1)(c1ccccc1)c1ccccc1", "AC50": "inconclusive: 23 µM"}, {"compound": "COc1ccc(-c2nc3ccc(C4=NNC(=O)CC4C)cc3[nH]2)cc1", "note": "(stereo not given)", "AC50": "active: 15 µM"}, {"compound": "Clc1cc(Cl)nc(Cl)n1", "AC50": "inconclusive: 76.3 µM"}, {"compound": "O=C1O[C@H](CO)[C@@H](O)[C@H](O)[C@H]1O", "outcome": "inactive"}, {"compound": "Cc1cccc(O)c1N", "outcome": "inactive"}, {"compound": "CCNC(=O)NCCCOc1cccc(CN2CCCCC2)c1", "outcome": "inactive"}, {"compound": "COc1ccc(CCNCC(O)COc2cccc(C)c2)cc1OC", "note": "(stereo not given)", "AC50": "inconclusive: 36.8 µM"}, {"compound": "C=C1CC[C@H](O)C/C1=C/C=C1\\CCC[C@]2(C)[C@@H]([C@H](C)CC[C@@H](O)C(C)(C)O)CC[C@@H]12", "AC50": "active: 21.1 µM"}, {"compound": "O=C(c1ccc(O)cc1)c1ccc(Cl)cc1", "AC50": "active: 86.9 µM"}, {"compound": "CC1=C(C/C=C(\\C)CCC[C@H](C)CCC[C@H](C)CCCC(C)C)C(=O)c2ccccc2C1=O", "outcome": "inactive"}, {"compound": "COc1cnc(NS(=O)(=O)c2ccc(N)cc2)nc1", "outcome": "inactive"}, {"compound": "O=C(O)CCc1nc(-c2ccccc2)c(-c2ccccc2)o1", "AC50": "inconclusive: 28.9 µM"}, {"compound": "Cc1cccc2c1cc1ccc3cccc4ccc2c1c34", "AC50": "active: 0.44 µM"}, {"compound": "Cc1nccn1CC1CCc2c(c3ccccc3n2C)C1=O", "note": "(stereo not given)", "AC50": "inconclusive: 23 µM"}, {"compound": "O=C(O)c1cc(O)c2c(c1)[O][Bi][O]2", "AC50": "inconclusive: 23 µM"}, {"compound": "Cc1cccc(C)c1NC(=O)c1cc(S(N)(=O)=O)c(Cl)cc1O", "AC50": "inconclusive: 15.5 µM"}]}]}
